{"source": "patent US5877280", "target": "T1, MutS (Apy MutS) (Aquifex pyrophilus) (UniProt P70755)", "T1 sequence (limits assumed)": "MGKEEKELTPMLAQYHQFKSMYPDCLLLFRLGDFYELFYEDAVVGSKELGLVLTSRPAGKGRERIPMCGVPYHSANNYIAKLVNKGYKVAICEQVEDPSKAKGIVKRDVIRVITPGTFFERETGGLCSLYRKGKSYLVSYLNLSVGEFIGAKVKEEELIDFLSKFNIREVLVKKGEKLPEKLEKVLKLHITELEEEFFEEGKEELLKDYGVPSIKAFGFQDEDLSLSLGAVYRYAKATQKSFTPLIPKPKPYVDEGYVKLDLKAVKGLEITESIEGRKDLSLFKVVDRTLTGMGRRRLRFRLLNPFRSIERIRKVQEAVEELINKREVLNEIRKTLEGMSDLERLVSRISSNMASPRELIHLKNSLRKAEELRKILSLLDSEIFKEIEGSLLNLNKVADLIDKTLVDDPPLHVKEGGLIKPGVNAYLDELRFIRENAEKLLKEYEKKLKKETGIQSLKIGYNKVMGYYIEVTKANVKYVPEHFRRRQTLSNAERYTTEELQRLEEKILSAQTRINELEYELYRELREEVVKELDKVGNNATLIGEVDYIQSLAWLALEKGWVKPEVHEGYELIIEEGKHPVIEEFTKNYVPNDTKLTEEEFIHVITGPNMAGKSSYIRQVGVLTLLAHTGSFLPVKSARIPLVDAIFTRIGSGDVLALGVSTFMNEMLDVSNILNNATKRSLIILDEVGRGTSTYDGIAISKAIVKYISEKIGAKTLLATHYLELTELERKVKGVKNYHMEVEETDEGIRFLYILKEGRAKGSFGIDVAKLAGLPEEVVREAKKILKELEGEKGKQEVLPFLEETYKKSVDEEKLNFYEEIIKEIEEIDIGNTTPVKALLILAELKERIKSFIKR", "assay": "EMSA", "conditions": "non-specific complexes with homoduplex competed away by excess lambda DNA; purified recombinant protein; protein details: expressed in E. coli from pDG182/pDG184 or pET16b; only the site is given", "note": "Weaker means in comparison with the reference protein, sequence or condition of that experiment. Where a protein sequence is shown, tags need not be part of it."}
{"sequence": "GGGGATCCTC (double strand) [Homoduplex PCR product (pUC19 type, 337-340 bp)]", "values": [{"measurement": "binding result", "result": "binds more weakly"}]}
